In PubChem BioAssay AID270 (DTP/NCI, 2004):
The list does not hold the whole screen: it is rich in T/C values a quarter to a half above the control, in often repeated tests (any T/C) and in doses without a T/C. Other doses and runs of a compound stand elsewhere. T/C gives the treated animals as a percentage of the vehicle group. Schedules are NCI's codes, taken here to give the interval after Q, in days (D) or hours (H), and the number of doses after X. Some entries give survivors of the animals treated and no T/C: the source files T/C as zero there, which appears to mark a toxic dose or a test without result, not a measured value. Some doses without a T/C left all or most animals alive at the check, yet need not have been tolerated: the source hardly ever lists a survival T/C far under the control, and the zero likely stands for such cases as well. Survivors were counted at the toxicity check, usually on the fifth day, unless a day is given; later deaths do not show. Some entries were tested several times; their values stand side by side, smallest first. Where survival is the endpoint, the PubChem record calls one and a half times the control and up active, and a quarter to a half above the control has no call in these data; cut-offs in other NCI protocols can differ. *1 amine or outer side, *2 acyl side, *3 side chain or, on linkers, in order; H or OH if unused. Where a SMILES comes first, the peptide text is derived from it. Bridges are numbered along the chain shown (N, C = ends). Roman numbers before positions name the chains, in order. [ ]: non-standard residue; d: D form. Actinocin(1to9) = Cc1c2oc3c(C)ccc(C(=O)[*:2])c3nc-2c(C(=O)[*:1])c(N)c1=O; NMeV = CN[CH](C(=O)O)C(C)C; Sar = CNCC(=O)O

System: BDF1 mice, s.c. Lewis lung carcinoma, T/C %
Assay: NCI In Vivo Anticancer Drug Screen. Data for tumor model Lewis Lung Carcinoma (subcutaneous) in B6D2F1 (BDF1) mice
How it was run: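 Transplanted tumors grown in mice; compound vs vehicle dosing; endpoint survival or tumor size; ratio T/C.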

[1] = T/C endpoint: median survival time, dose: 40.0 mg/kg/injection, schedule: Q01DX001 (ip), vehicle: Klucel (hydroxypropylcellulose) (HPC), higher T/C = longer survival

## O=NN(CCF)C(=O)NC1CCCCC1
[1]
  T/C: 143 % of control
  survivor count: 10 of 10
T/C endpoint: median survival time, dose: 40.7 mg/kg/injection, schedule: Q01DX001 (ip), vehicle: other, higher T/C = longer survival
  T/C: 140 % of control
T/C endpoint: median survival time, dose: 80.0 mg/kg/injection, schedule: Q01DX001 (ip), vehicle: Klucel (hydroxypropylcellulose) (HPC), higher T/C = longer survival
  survivor count: 0 of 10, 1 of 10, 4 of 10
T/C endpoint: median survival time, dose: 81.4 mg/kg/injection, schedule: Q01DX001 (ip), vehicle: other, higher T/C = longer survival
  survivor count: 2 of 10
T/C endpoint: median survival time, dose: 162.8 mg/kg/injection, schedule: Q01DX001 (ip), vehicle: other, higher T/C = longer survival
  survivor count: 0 of 10

## ClCCn1cnc2c(SCc3ccccc3)ncnc21
T/C endpoint: mean tumor weight, dose: 480.0 mg/kg/injection, schedule: Q01DX011 (ip), vehicle: other, higher T/C = larger tumour
  survivor count: 2 of 6

## O=C1C=Cc2ccc(O)cc2C1=O
T/C endpoint: mean tumor weight, dose: 2.0 mg/kg/injection, schedule: Q01DX011 (ip), vehicle: saline, higher T/C = larger tumour
  survivor count: 0 of 7
T/C endpoint: mean tumor weight, dose: 3.0 mg/kg/injection, schedule: Q01DX011 (ip), vehicle: saline, higher T/C = larger tumour
  survivor count: 0 of 7
T/C endpoint: mean tumor weight, dose: 4.5 mg/kg/injection, schedule: Q01DX011 (ip), vehicle: saline, higher T/C = larger tumour
  survivor count: 0 of 7
T/C endpoint: mean tumor weight, dose: 6.7 mg/kg/injection, schedule: Q01DX011 (ip), vehicle: saline, higher T/C = larger tumour
  survivor count: 0 of 7

## [Cl][Hg][c]1ccc2ccccc2c1
T/C endpoint: median survival time, dose: 1.5 mg/kg/injection, schedule: Q01DX009 (ip), vehicle: gum acacia, higher T/C = longer survival
  T/C: 126 % of control

## CCN(CC)C(=S)S
T/C endpoint: mean tumor weight, dose: 1000.0 mg/kg/injection, schedule: Q01DX011 (ip), vehicle: saline, higher T/C = larger tumour
  survivor count: 1 of 6 and 2 of 7
T/C endpoint: mean tumor weight, dose: 2000.0 mg/kg/injection, schedule: Q01DX011 (ip), vehicle: saline, higher T/C = larger tumour
  survivor count: 0 of 6
T/C endpoint: median survival time, dose: 2000.0 mg/kg/injection, schedule: Q01DX011 (ip), vehicle: saline, higher T/C = longer survival
  survivor count: 0 of 10 on day 58

## COc1c(Cl)cc2c(c1OC)N(C)C1N3C(=O)C4(C)SSC3(C(=O)N4C)C(O)C21O (stereo unspecified)
T/C endpoint: median survival time, dose: 1.0 mg/kg/injection, schedule: Q01DX009 (ip), vehicle: Klucel (hydroxypropylcellulose) (HPC), higher T/C = longer survival
  survivor count: 8 of 10

## CCN(CC)Cc1c(O)ccc2c3c(c(=O)oc12)CCCC3
T/C endpoint: median survival time, dose: 14.5 mg/kg/injection, schedule: Q01DX009 (ip), vehicle: Klucel (hydroxypropylcellulose) (HPC), higher T/C = longer survival
  survivor count: 5 of 5
T/C endpoint: median survival time, dose: 116.0 mg/kg/injection, schedule: Q01DX009 (ip), vehicle: Klucel (hydroxypropylcellulose) (HPC), higher T/C = longer survival
  survivor count: 0 of 5

## O=[N+]([O-])c1ccc(Cl)c2c([N+](=O)[O-])cccc12
T/C endpoint: median survival time, dose: 25.0 mg/kg/injection, schedule: Q01DX009 (ip), vehicle: Klucel (hydroxypropylcellulose) (HPC), higher T/C = longer survival
  survivor count: 10 of 10

## O=[N+]([O-])O.[Ga]
T/C endpoint: median survival time, dose: 4.0 mg/kg/injection, schedule: Q01DX009 (ip), vehicle: saline, higher T/C = longer survival
  T/C: 127 % of control
T/C endpoint: median survival time, dose: 64.0 mg/kg/injection, schedule: Q01DX009 (ip), vehicle: saline, higher T/C = longer survival
  survivor count: 10 of 10

## CCC(=O)O[C@H]1CC[C@H]2[C@@H]3CCC4=CC(=O)CC[C@]4(C)[C@H]3CC[C@]12C
T/C endpoint: median survival time, dose: 640.0 mg/kg/injection, schedule: Q02DX009 (ip), vehicle: Klucel (hydroxypropylcellulose) (HPC), higher T/C = longer survival
  survivor count: 10 of 10

## CN(Cc1cnc2nc(N)nc(N)c2n1)c1c(Cl)cc(C(=O)NC(CCC(=O)O)C(=O)O)cc1Cl (stereo unspecified)
T/C endpoint: median survival time, dose: 60.0 mg/kg/injection, schedule: Q01DX009 (ip), vehicle: sodium bicarbonate, higher T/C = longer survival
  T/C: 128 % of control
T/C endpoint: median survival time, dose: 135.0 mg/kg/injection, schedule: Q01DX009 (ip), vehicle: sodium bicarbonate, higher T/C = longer survival
  survivor count: 10 of 10
T/C endpoint: median survival time, dose: 1260.0 mg/kg/injection, schedule: Q04DX003 (ip), vehicle: sodium bicarbonate, higher T/C = longer survival
  survivor count: 6 of 10

## CCC(C)C1NC(=O)C(NC(=O)c2c3nc4c(C(=O)NC5C(=O)NC(C(C)C)C(=O)N6CCCC6C(=O)N(C)CC(=O)N(C)C(C(C)C)C(=O)OC5C)ccc(C)c4oc-3c(C)c(=O)c2N)C(C)OC(=O)C(C(C)C)N(C)C(=O)CN(C)C(=O)C2CCCN2C1=O (stereo unspecified) (I: TIP[Sar][NMeV] / II: TVP[Sar][NMeV]; ester I:1-I:C, II:1-II:C; linker I:N-II:N via Actinocin(1to9); configuration not given here)
T/C endpoint: median survival time, dose: 100.0 micrograms/kg/injection, schedule: Q01DX009 (ip), vehicle: water, higher T/C = longer survival
  survivor count: 10 of 10
T/C endpoint: median survival time, dose: 200.0 micrograms/kg/injection, schedule: Q01DX009 (ip), vehicle: water, higher T/C = longer survival
  survivor count: 10 of 10
T/C endpoint: median survival time, dose: 600.0 micrograms/kg/injection, schedule: Q04DX003 (ip), vehicle: water, higher T/C = longer survival
  survivor count: 10 of 10
T/C endpoint: median survival time, dose: 1200.0 micrograms/kg/injection, schedule: Q04DX003 (ip), vehicle: water, higher T/C = longer survival
  survivor count: 10 of 10

## CCOP(=O)(N1CC1(C)C)N1CC1(C)C (stereo unspecified)
T/C endpoint: median survival time, dose: 120.0 mg/kg/injection, schedule: Q01DX009 (ip), vehicle: saline, higher T/C = longer survival
  survivor count: 10 of 10

## CS(=O)(=O)OCC(O)C(O)COS(C)(=O)=O (stereo unspecified)
T/C endpoint: mean tumor weight, dose: 62.5 mg/kg/injection, schedule: Q01DX011 (ip), vehicle: saline, evaluated on day 12, higher T/C = larger tumour
  T/C: 144 % of control
